Results are given in words; binding and its absence hold for the method and conditions named. Binding seen in cells or lysates may run through a third protein. Some binding calls cover weakened binding; strength is not graded here. Sequences can lack the tags named with a protein.
B1: 2x-HA-tagged Phb1 (protein, UniProt P40961 1-287)
chain: MSNSAKLIDVITKVALPIGIIASGIQYSMYDVKGGSRGVIFDRINGVKQQVVGEGTHFLVPWLQKAIIYDVRTKPKSIATNTGTKDLQMVSLTLRVLHRPEVLQLPAIYQNLGLDYDERVLPSIGNEVLKSIVAQFDAAELITQREIISQKIRKELSTRANEFGIKLEDVSITHMTFGPEFTKAVEQKQIAQQDAERAKFLVEKAEQERQASVIRAEGEAESAEFISKALAKVGDGLLLIRRLEASKDIAQTLANSSNVVYLPSQHSGGGNSESSGSPNSLLLNIGR

Target: T1, 3x-Flag-tagged E193Q Msp1 (S. cerevisiae) (UniProt P28737)
T1 sequence: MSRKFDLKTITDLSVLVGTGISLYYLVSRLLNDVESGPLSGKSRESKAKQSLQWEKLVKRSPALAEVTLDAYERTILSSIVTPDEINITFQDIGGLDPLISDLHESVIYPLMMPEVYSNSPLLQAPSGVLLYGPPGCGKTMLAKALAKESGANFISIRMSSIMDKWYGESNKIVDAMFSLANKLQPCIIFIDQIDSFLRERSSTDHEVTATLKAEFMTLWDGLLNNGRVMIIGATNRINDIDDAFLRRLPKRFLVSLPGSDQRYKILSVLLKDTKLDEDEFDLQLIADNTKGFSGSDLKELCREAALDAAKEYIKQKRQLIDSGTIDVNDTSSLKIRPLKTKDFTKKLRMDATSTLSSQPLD
Experiment: co-IP

Row | Binder | binding
1 | B1 | binds
2 | MISDEQLNSLAITFGIVMMTLIVIYHAVDSTMSPKN (peptide, UniProt Q99380 1-36) [2x-HA-tagged Ost4] | binds

— publication doi:10.1101/2025.03.31.646376
